Source: US8524902B2, “[1,2,4]triazolo[4,3-f]pteridines useful as inhibitors of protein kinases” (Vertex Pharmaceuticals Incorporated, priority 2006, dated 2013)
pKi: −log10 of the molar value. Some of these results come from one statement about several compounds together. Some ranges recur; such a range may be that of the whole group of compounds.

Protein sequences, listed by entry. Tags and fused reporters are not part of them. Residues count along the entry.
UniProt P53350, 20-338: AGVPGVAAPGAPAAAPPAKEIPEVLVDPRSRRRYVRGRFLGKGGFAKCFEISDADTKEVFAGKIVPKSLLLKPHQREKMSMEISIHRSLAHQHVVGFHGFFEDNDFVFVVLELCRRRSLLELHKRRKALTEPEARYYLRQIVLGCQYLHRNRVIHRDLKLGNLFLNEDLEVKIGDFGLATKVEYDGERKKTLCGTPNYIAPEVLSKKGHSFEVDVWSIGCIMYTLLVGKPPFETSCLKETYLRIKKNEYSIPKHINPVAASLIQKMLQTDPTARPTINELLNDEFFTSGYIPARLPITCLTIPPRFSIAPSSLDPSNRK

molecular target: T1, Plk1 (Homo sapiens, UniProt P53350); assay: Plk1 inhibition assay (radioactive-phosphate incorporation); format: biochemical; conditions: range printed with mixed units (100 nM to 4 μM)
T1 construct: in the presence of 15 nM Plk1 (A20-K338)
Protocol: Compounds of the present invention may be evaluated as inhibitors of human PLK kinase using the following assays.
Compounds were screened for their ability to inhibit Plk1 using a radioactive-phosphate incorporation assay. Assays were carried out in a mixture of 25 mM HEPES (pH 7.5), 10 mM MgCl2, and 1 mM DTT. Final substrate concentrations were 50 μM [γ-33P]ATP (136 mCi 33P ATP/mmol ATP, Amersham Pharmacia Biotech/Sigma Chemicals) and 10 μM peptide (SAM68 protein Δ332-443). Assays were carried out at 25° C. in the presence of 15 nM Plk1 (A20-K338). An assay stock buffer solution was prepared containing all of the reagents listed above, with the exception of ATP and the test compound of interest. 30 μL of the stock solution was placed in a 96 well plate followed by addition of 2 μL of DMSO stock containing serial dilutions of the test compound (typically starting from a final concentration of 10 μM with 2-fold serial dilutions) in duplicate (final DMSO concentration 5%). The plate was pre-incubated for 10 minutes at 25° C. and the reaction initiated by addition of 8 μL [γ33P]ATP (final concentration 50 μM).
The reaction was stopped after 60 minutes by the addition of 100 μL 0.14M phosphoric acid. A multiscreen phosphocellulose filter 96-well plate (Millipore, Cat no. MAPHN0B50) was pretreated with 100 μL 0.2M phosphoric acid prior to the addition of 125 μL of the stopped assay mixture. The plate was washed with 4×200 μL 0.2M phosphoric acid. After drying, 100 μL Optiphase ‘SuperMix’ liquid scintillation cocktail (Perkin Elmer) was added to the well prior to scintillation counting (1450 Microbeta Liquid Scintillation Counter, Wallac).
After removing mean background values for all of the data points, Ki(app) data were calculated from non-linear regression analysis of the initial rate data using the Prism software package (GraphPad Prism version 3.0cx for Macintosh, GraphPad Software, San Diego Calif., USA).
Compounds were screened for their ability to inhibit Plk1 using a radioactive-phosphate incorporation assay. Assays were carried out in a mixture of 25 mM HEPES (pH 7.5), 10 mM MgCl2, 0.1% BSA, and 2 mM DTT. Final substrate concentrations were 150 μM (350 μM for determining values of <1 nM) [γ-33P]ATP (115 mCi 33P ATP/mmol ATP, Amersham Pharmacia Biotech/Sigma Chemicals) and 300 μM (450 μM for determining values of <1 nM) peptide (KKKISDELMDATFADQEAK) SEQ. ID NO. 1. Assays were carried out at 25° C. in the presence of 4 nM (1 nM for determining values of <1 nM) Plk1. An assay stock buffer solution was prepared containing all of the reagents listed above, with the exception of ATP and the test compound of interest. 30 μL of the stock solution was placed in a 96 well plate followed by addition of 2 μL of DMSO stock containing serial dilutions of the test compound (typically starting from a final concentration of 10 μM with 2-fold serial dilutions) in duplicate (final DMSO concentration 5%). The plate was pre-incubated for 10 minutes at 25° C. and the reaction initiated by addition of 8 μl [γ-33P]ATP (final concentration 150 μM (350 μM for determining values of <1 nM))).
The reaction was stopped after 90 minutes (240 minutes for determining values of <1 nM) by the addition of 100 μL 0.14M phosphoric acid. A multiscreen phosphocellulose filter 96-well plate (Millipore, Cat no. MAPHN0B50) was pretreated with 100 μL 0.2M phosphoric acid prior to the addition of 125 μL of the stopped assay mixture. The plate was washed with 4×200 μL 0.2M phosphoric acid. […]

pKi, 5.40 to 7.00:
CC[C@@H]1c2nncn2-c2cnc(NC3CC3)nc2N1C1CCCC1 [Compound I-26, (R)-5-cyclopentyl-N-cyclopropyl-4-ethyl-4,5-dihydro-[1,2,4]triazolo[4,3-f]pteridin-7-amine]
CC[C@@H]1c2nncn2-c2cnc(N)nc2N1C1CCCC1 [Compound I-27, (R)-5-cyclopentyl-4-ethyl-4,5-dihydro-[1,2,4]triazolo[4,3-f]pteridin-7-amine]
CC[C@@H]1c2nncn2-c2cnc(NC)nc2N1C1CCCC1 [Compound I-36, (R)-5-cyclopentyl-4-ethyl-N-methyl-4,5-dihydro-[1,2,4]triazolo[4,3-f]pteridin-7-amine]
CCNc1ncc2c(n1)N(C1CCCC1)[C@H](CC)c1nncn1-2 [Compound I-37, (R)-5-cyclopentyl-N,4-diethyl-4,5-dihydro-[1,2,4]triazolo[4,3-f]pteridin-7-amine]
CC[C@@H]1c2nncn2-c2cnc(NC3CCCC3)nc2N1C1CCCC1 [Compound I-38, (R)—N,5-dicyclopentyl-4-ethyl-4,5-dihydro-[1,2,4]triazolo[4,3-f]pteridin-7-amine]
